Data published in paper PMC4879346.
These are yes or no findings as the source states them, for the method shown. Binding can be weak; no strength is given.

Target: MdATG8i (Malus domestica)
Experiment: two-hybrid; GAL4 system in yeast strain AH109; MdATG8i in pGBKT7 as bait, MdATG7a or MdATG7b in pGADT7 as prey; growth on SD-Leu-Trp and SD-Leu-Trp-His-Ade+X-alpha-gal plates

| Substance | binding |
| --- | --- |
| MdATG7a (from UniProt A0A068EPI7) | binds |
| MdATG7b (from UniProt A0A068EN18) | binds |
